Laboratory results: PubChem BioAssay AID2417 (National Center for Advancing Translational Sciences (NCATS), 2010)
The campaign covered roughly 140,000 compounds. About 4,300 (3.1%) were called active. The shares of active, inactive and inconclusive entries below differ from those in the screen.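 How the source made its calls: active means readout at or below -70, meaning at least 70% loss of cells showing the perinucleolar compartment, a nuclear body marking cancer cells; inconclusive means readout between -30 and a set limit; inactive means the rest.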

Assay: High Content Assay for Compounds that inhibit the Assembly of the Perinucleolar Compartment;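 further: plate controls were DMSO wells for no effect and camptothecin positive control wells for full effect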
Details: PC3M PTB-GFP, PNC prevalence imaging, 16 h; at 10 µM; hits give low values
Summary of the method: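 Read-out is percentage of cells bearing a perinucleolar compartment, from automated 20x imaging of fixed, Hoechst-stained PC3M PTB-GFP cells. Cells were seeded 4 h, then exposed 16 h to compound (23 nl of library stock) in duplicate plates.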

SMILES | activity change (PNC), negative = inhibition
CC(C)OCCCNC(=O)c1c(N)n(Cc2cccs2)c2nc3ccccc3nc12 | inconclusive: -46%
COc1cc(C(c2c(C)[nH]n(-c3ccccc3)c2=O)c2c(C)[nH]n(-c3ccccc3)c2=O)cc(OC)c1OC | inconclusive: -46.7%
CCCCn1c(O)c(C(C)=Nc2ccc(C(=O)O)cc2)c(=O)[nH]c1=O | inconclusive: -40.2%
Cc1nn(Cc2ccccc2Cl)c(Cl)c1C(=O)OC(C(=O)NC(N)=O)C(C)C (stereo not given) | inconclusive: -32.1%
O=C(NC1(C(F)(F)F)Oc2ccccc2O1)N1CCC2(CC1)OCCO2 | active: -119%
CCCCCCN=Cc1c(O)n(C)c(=O)n(C)c1=O | inconclusive: -39.9%
CN1CCCC(C(=O)c2ccccc2)C1 (stereo not given) | inactive: 82.2%
O=c1cc(CN2CC=C(c3ccccc3)CC2)c2c(ccc3ccccc32)o1 | inconclusive: -35.7%
COC(=NC1CCCCC1)C(O)c1c[nH]c2ccccc12 (stereo not given) | inconclusive: -61%
C/C(CC(c1ccccc1)c1c(O)c2ccccc2oc1=O)=N\NC(N)=S (stereo not given) | inactive: -16.1%
NC1=Nc2ccccc2Oc2ccccc21 | inconclusive: -39.4%
Cc1cccnc1-n1c(-c2ccccc2)nc2ccccc2c1=O | inconclusive: -49.7%
Cc1ccc(C2NC(=S)NC(c3ccc(C)cc3)C23C(=O)NC(=O)NC3=O)cc1 (stereo not given) | inconclusive: -38.7%
CCCCn1c(O)c(C(CC)=Nc2cccc(C(=O)O)c2)c(=O)[nH]c1=O | active: -90.1%
Cc1ccc(N2CCN(CCc3ccccc3)CC2)cc1 | inconclusive: -48.8%
CCOC(=O)C1SC2(C(F)(F)F)CC1(O)c1c(C)cc(C)nc1O2 (stereo not given) | inconclusive: -47.2%
CCOc1c(P(=S)(N(C)C)N(C)C)c(C)nn1-c1ccccc1 | inconclusive: -60.8%
CN(C(=O)Oc1cccc2cccnc12)c1ccccc1 | inconclusive: -35.3%
O[C@H]1C2CCC1C(N1CCCCC1)CC2 (stereo not given in full) | inconclusive: -46.9%
CNC(=O)N(C)c1nnc(C(C)(C)C)s1 | inconclusive: -41.6%
COc1ccc(C(=O)N2CCOCC2)cc1S(=O)(=O)N1CCC(C)CC1 | inconclusive: -30.3%
CN(C)C1(CNC(=O)c2ccc(Cl)c(S(=O)(=O)NCc3ccco3)c2)CCCCC1 | inconclusive: -53.4%
COc1ccc(CCn2c(O)c(C=NCCN3CCCCC3)c(=O)[nH]c2=O)cc1OC | inactive: -0.671%

SMILES | activity change (PNC), negative = inhibition
Clc1ccc(COC(Cn2ccnc2)c2ccc(Cl)cc2Cl)c(Cl)c1 (stereo not given) | inconclusive: -59.6%
CN1CCN(c2nccc3c2ncn3C)CC1 | inconclusive: -48.4%
CCCCn1c(O)c(C(C)=NC(Cc2c[nH]c3ccccc23)C(=O)OC)c(=O)[nH]c1=O (stereo not given) | inconclusive: -39.9%
Cc1nc2sccc2c(=O)n1-c1ccccc1Cl | inactive: 54.5%
CC1CCN(S(=O)(=O)c2ccc(NN=C(C#N)C#N)cc2)CC1 | inconclusive: -40.4%
CCOc1cc(-c2nc3c(C)cccn3c2NCC2CCCO2)ccc1O (stereo not given) | inactive: 7.15%
CN(C)C(Cc1ccccc1)C(=O)c1ccccc1 (stereo not given) | inconclusive: -54.4%
COc1cccc(CN2CCCCC2c2cccnc2)c1 (stereo not given) | active: -83.4%
Cn1c(=O)cc(OCCCC(=O)N2CCC3(CC2)OCCO3)c2ccccc21 | inconclusive: -35.8%
c1ccc2c(c1)[nH]c1cnccc12 | inconclusive: -36.2%
CN1C(=O)N(C)C(=O)C(CCc2ccncc2)(Cc2ccc3c(c2)OCO3)C1=O | inconclusive: -52.4%
O=C1CN(C(=O)CN2CCCCC2)C(c2ccccc2)c2cc(Br)ccc2N1 (stereo not given) | active: -91.8%
COc1ccc(Nc2ncc(C(=O)N3CCC4(CC3)OCCO4)c3ccccc23)cc1 | inconclusive: -50.8%
Clc1ccccc1CNC1CN2CCC1CC2 (stereo not given) | inconclusive: -31.1%
CCC(C)N=Cc1c(O)n(-c2ccccc2)c(=O)[nH]c1=O (stereo not given) | inactive: 30.3%
O=c1cccc2n1CC1CC2CN(Cc2cccc(Cl)c2Cl)C1 (stereo not given) | inconclusive: -36.4%
C=CCN1C(=O)c2ccccc2Sc2ccc(C(=O)N3CCC4(CC3)OCCO4)cc21 | inactive: 36%
O=C1NC(=O)N(c2ccc(F)cc2)C(=O)/C1=C/c1ccc2c(c1)CCCN2Cc1ccccc1 | inactive: -20.7%
CC(=O)N1CC(=O)Nc2ccc(Cl)cc2C1c1ccc(F)cc1 (stereo not given) | inconclusive: -58.4%
CC(C)C/C(=N/O)c1c[nH]c2ccccc12 | inactive: 8.38%
c1ccc(C2N3CCCN23)cc1 (stereo not given) | inconclusive: -51.2%
O=C1CC(N2CCC(n3c(=O)[nH]c4ccccc43)CC2)C(=O)N1Cc1ccccc1 (stereo not given) | inconclusive: -72.2%

3 successive entries out of the list so far, quoted:
SMILES | activity change (PNC), negative = inhibition
CNC(=O)N(C)c1nnc(C(C)(C)C)s1 | inconclusive: -41.6%
COc1ccc(C(=O)N2CCOCC2)cc1S(=O)(=O)N1CCC(C)CC1 | inconclusive: -30.3%
CN(C)C1(CNC(=O)c2ccc(Cl)c(S(=O)(=O)NCc3ccco3)c2)CCCCC1 | inconclusive: -53.4%
